# Data from the supplement of paper PMC8728848.
# The other results are listed elsewhere or left out.
# Key:
# Test in all cases: glycan array binding signal (z-score within array); higher = stronger binding
# Conditions in all cases: glycan notation: IUPAC condensed, linker removed
# [1] = biological target: GlcNAc(a1-6)Gal(b1-4)GlcNAc
# Method in brief: (§1)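 The binding signal is a Z-score computed within each array. Data were drawn from 3228 arrays in the Consortium for Functional Glycomics database, restricted to those with a known protein sequence. Scores were averaged over arrays of the same protein sequence at different concentrations or buffers, and over linkers, and negative values can be taken as non-binding.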
# [2] = biological target: GlcNAc(b1-2)Gal(b1-3)GalNAc
# Method in brief: as §1
# [3] = biological target: GlcNAc(b1-2)Man(a1-3)[GlcNAc(b1-2)Man(a1-6)]Man(b1-4)GlcNAc(b1-4)GlcNAc
# Method in brief: as §1
# [4] = biological target: GlcNAc(b1-2)Man(a1-3)[GlcNAc(b1-2)Man(a1-6)]Man(b1-4)GlcNAc(b1-4)[Fuc(a1-6)]GlcNAc
# Method in brief: as §1
# GlcNAc(b1-3)Gal = biological target: GlcNAc(b1-3)Gal
# Method in brief: as §1
# [5] = biological target: GlcNAc(b1-3)Gal(b1-3)GalNAc
# Method in brief: as §1
# GlcNAc(b1-3)Gal(b1-4)Glc = biological target: GlcNAc(b1-3)Gal(b1-4)Glc
# Method in brief: as §1
# [6] = biological target: GlcNAc(b1-3)Gal(b1-4)GlcNAc
# Method in brief: as §1
# [7] = biological target: GlcNAc(b1-3)Gal(b1-4)GlcNAc(b1-3)Gal(b1-4)GlcNAc
# Method in brief: as §1
# GlcNAc(b1-3)GalNAc = biological target: GlcNAc(b1-3)GalNAc
# Method in brief: as §1
# GlcNAc(b1-3)Man = biological target: GlcNAc(b1-3)Man
# Method in brief: as §1
# [8] = biological target: GlcNAc(b1-3)[GlcNAc(b1-4)][GlcNAc(b1-6)]GlcNAc
# Method in brief: as §1
# [9] = biological target: GlcNAc(b1-3)[GlcNAc(b1-6)]Gal(b1-4)GlcNAc
# Method in brief: as §1
# [10] = biological target: GlcNAc(b1-3)[GlcNAc(b1-6)]GalNAc
# Method in brief: as §1
# [11] = biological target: GlcNAc(b1-4)Gal(b1-4)GlcNAc
# Method in brief: as §1
# GlcNAc(b1-4)GlcNAc = biological target: GlcNAc(b1-4)GlcNAc
# Method in brief: as §1
# [12] = biological target: GlcNAc(b1-4)GlcNAc(b1-4)GlcNAc
# Method in brief: as §1
# [13] = biological target: GlcNAc(b1-4)GlcNAc(b1-4)GlcNAc(b1-4)GlcNAc(b1-4)GlcNAc
# Method in brief: as §1
# [14] = biological target: GlcNAc(b1-4)GlcNAc(b1-4)GlcNAc(b1-4)GlcNAc(b1-4)GlcNAc(b1-4)GlcNAc
# Method in brief: as §1
# [15] = biological target: GlcNAc(b1-4)[GlcNAc(b1-6)]GalNAc
# Method in brief: as §1
# [16] = biological target: GlcNAc(b1-6)Gal(b1-4)GlcNAc
# Method in brief: as §1
# GlcNAc(b1-6)GalNAc = biological target: GlcNAc(b1-6)GalNAc
# Method in brief: as §1
# GlcNAc3Prop(b1-4)GlcNAc = biological target: GlcNAc3Prop(b1-4)GlcNAc
# Method in brief: as §1
# [17] = biological target: GlcNAc6S(b1-3)Gal(b1-4)GlcNAc
# Method in brief: as §1
# Kdn(a2-3)Gal(b1-3)GalNAc = biological target: Kdn(a2-3)Gal(b1-3)GalNAc
# Method in brief: as §1
# Kdn(a2-3)Gal(b1-3)GlcNAc = biological target: Kdn(a2-3)Gal(b1-3)GlcNAc
# Method in brief: as §1
# Kdn(a2-3)Gal(b1-4)Glc = biological target: Kdn(a2-3)Gal(b1-4)Glc
# Method in brief: as §1
# Kdn(a2-3)Gal(b1-4)GlcNAc = biological target: Kdn(a2-3)Gal(b1-4)GlcNAc
# Method in brief: as §1
# [18] = biological target: Kdn(a2-3)Gal(b1-4)[Fuc(a1-3)]GlcNAc
# Method in brief: as §1
# Kdn(a2-6)Gal(b1-4)GlcNAc = biological target: Kdn(a2-6)Gal(b1-4)GlcNAc
# Method in brief: as §1
# [19] = biological target: Man(a1-2)Man(a1-2)Man(a1-3)Man
# Method in brief: as §1
# [20] = biological target: Man(a1-2)Man(a1-2)Man(a1-6)[Man(a1-3)]Man
# Method in brief: as §1
# Man(a1-2)Man(a1-3)Man = biological target: Man(a1-2)Man(a1-3)Man
# Method in brief: as §1
# [21] = biological target: Man(a1-2)Man(a1-3)[Man(a1-2)Man(a1-6)]Man
# Method in brief: as §1
# [22] = biological target: Man(a1-2)Man(a1-3)[Man(a1-2)Man(a1-6)]Man(a1-6)[Man(a1-2)Man(a1-2)Man(a1-3)]Man
# Method in brief: as §1
# [23] = biological target: Man(a1-2)Man(a1-3)[Man(a1-2)Man(a1-6)]Man(a1-6)[Man(a1-2)Man(a1-2)Man(a1-3)]Man(b1-4)GlcNAc(b1-4)GlcNAc
# Method in brief: as §1
# [24] = biological target: Man(a1-2)Man(a1-3)[Man(a1-6)]Man(a1-6)[Man(a1-2)Man(a1-3)]Man(b1-4)GlcNAc(b1-4)GlcNAc
# Method in brief: as §1
# [25] = biological target: Man(a1-2)Man(a1-6)[Man(a1-3)]Man(a1-6)[Man(a1-2)Man(a1-2)Man(a1-3)]Man
# Method in brief: as §1
# [26] = biological target: Man(a1-2)Man(a1-6)[Man(a1-3)]Man(a1-6)[Man(a1-2)Man(a1-2)Man(a1-3)]Man(b1-4)GlcNAc(b1-4)GlcNAc
# Method in brief: as §1
# Man(a1-3)[Man(a1-6)]Man = biological target: Man(a1-3)[Man(a1-6)]Man
# Method in brief: as §1
# [27] = biological target: Man(a1-3)[Man(a1-6)]Man(a1-6)[Man(a1-2)Man(a1-3)]Man(b1-4)GlcNAc(b1-4)GlcNAc
# Method in brief: as §1
# [28] = biological target: Man(a1-3)[Man(a1-6)]Man(a1-6)[Man(a1-3)]Man
# Method in brief: as §1
# [29] = biological target: Man(a1-3)[Man(a1-6)]Man(a1-6)[Man(a1-3)]Man(b1-4)GlcNAc(b1-4)GlcNAc
# Method in brief: as §1
# [30] = biological target: Man(a1-3)[Man(a1-6)]Man(b1-4)GlcNAc(b1-4)GlcNAc
# Method in brief: as §1
# Man(a1-6)Man = biological target: Man(a1-6)Man
# Method in brief: as §1
binder,measurement,setting,value
"CTLX (Homo sapiens), Q6UXS0 (protein) SLCPLFWMEFKGHCYRFFPLNKTWAEADLYCSEFSVGRKSAKLASIHSWEENVFVYDLVNSCVPGIPADVWTGLHDHRQEGQFEWTDGSSYDYSYWDGSQPDDGVHADPEEEDCVQIWYRPTSALRSWNDNTCSRKFPFVCKIPSLTIH",glycan array binding signal (z-score),[1],1.64
same,glycan array binding signal (z-score),[2],-0.988
same,glycan array binding signal (z-score),[3],0.268
same,glycan array binding signal (z-score),[4],1.54
same,glycan array binding signal (z-score),GlcNAc(b1-3)Gal,-0.481
same,glycan array binding signal (z-score),[5],4.33
same,glycan array binding signal (z-score),GlcNAc(b1-3)Gal(b1-4)Glc,-0.052
same,glycan array binding signal (z-score),[6],-0.402
same,glycan array binding signal (z-score),[7],-0.368
same,glycan array binding signal (z-score),GlcNAc(b1-3)GalNAc,-1.1
same,glycan array binding signal (z-score),GlcNAc(b1-3)Man,-0.486
same,glycan array binding signal (z-score),[8],-0.646
same,glycan array binding signal (z-score),[9],-0.952
same,glycan array binding signal (z-score),[10],0.077
same,glycan array binding signal (z-score),[11],-0.206
same,glycan array binding signal (z-score),GlcNAc(b1-4)GlcNAc,1.3
same,glycan array binding signal (z-score),[12],-0.487
same,glycan array binding signal (z-score),[13],-0.43
same,glycan array binding signal (z-score),[14],-1.05
same,glycan array binding signal (z-score),[15],-0.699
same,glycan array binding signal (z-score),[16],0.922
same,glycan array binding signal (z-score),GlcNAc(b1-6)GalNAc,-0.029
same,glycan array binding signal (z-score),GlcNAc3Prop(b1-4)GlcNAc,-0.857
same,glycan array binding signal (z-score),[17],1.72
same,glycan array binding signal (z-score),Kdn(a2-3)Gal(b1-3)GalNAc,1.45
same,glycan array binding signal (z-score),Kdn(a2-3)Gal(b1-3)GlcNAc,-0.296
same,glycan array binding signal (z-score),Kdn(a2-3)Gal(b1-4)Glc,-0.174
same,glycan array binding signal (z-score),Kdn(a2-3)Gal(b1-4)GlcNAc,-0.699
same,glycan array binding signal (z-score),[18],0.498
same,glycan array binding signal (z-score),Kdn(a2-6)Gal(b1-4)GlcNAc,0.359
same,glycan array binding signal (z-score),[19],-0.284
same,glycan array binding signal (z-score),[20],-0.523
same,glycan array binding signal (z-score),Man(a1-2)Man(a1-3)Man,0.183
same,glycan array binding signal (z-score),[21],-0.178
same,glycan array binding signal (z-score),[22],-0.381
same,glycan array binding signal (z-score),[23],-0.548
same,glycan array binding signal (z-score),[24],-0.346
same,glycan array binding signal (z-score),[25],0.48
same,glycan array binding signal (z-score),[26],-0.308
same,glycan array binding signal (z-score),Man(a1-3)[Man(a1-6)]Man,-0.586
same,glycan array binding signal (z-score),[27],-0.848
same,glycan array binding signal (z-score),[28],-0.932
same,glycan array binding signal (z-score),[29],-1.14
same,glycan array binding signal (z-score),[30],-0.295
same,glycan array binding signal (z-score),Man(a1-6)Man,0.105
